The results in this text go back to PMC3629710.

The chains behind the UniProt entries cited, without tags or fusion partners. Where a name states a change or a piece, a line headed by the entry shows the natural chain unless it says otherwise. Residues count along the entry.
UniProt O60504: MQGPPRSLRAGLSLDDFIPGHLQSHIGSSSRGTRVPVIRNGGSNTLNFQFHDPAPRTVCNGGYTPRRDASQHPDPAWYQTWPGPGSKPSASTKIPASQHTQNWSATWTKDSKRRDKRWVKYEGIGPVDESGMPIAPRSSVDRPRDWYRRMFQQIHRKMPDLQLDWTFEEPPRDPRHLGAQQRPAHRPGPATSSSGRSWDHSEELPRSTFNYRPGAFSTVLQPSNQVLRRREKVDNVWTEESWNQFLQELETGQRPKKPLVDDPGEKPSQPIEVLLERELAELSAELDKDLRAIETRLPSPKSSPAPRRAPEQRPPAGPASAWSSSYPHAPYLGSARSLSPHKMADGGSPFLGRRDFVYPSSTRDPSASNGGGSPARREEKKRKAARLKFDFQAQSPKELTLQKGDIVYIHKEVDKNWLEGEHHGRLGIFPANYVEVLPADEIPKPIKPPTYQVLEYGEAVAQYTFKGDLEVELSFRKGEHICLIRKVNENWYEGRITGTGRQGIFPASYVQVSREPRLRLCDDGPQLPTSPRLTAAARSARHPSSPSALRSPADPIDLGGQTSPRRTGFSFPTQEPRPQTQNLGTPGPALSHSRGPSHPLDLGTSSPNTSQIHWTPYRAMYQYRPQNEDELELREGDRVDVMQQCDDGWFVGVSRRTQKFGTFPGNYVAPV
UniProt Q92968, residues 272-336: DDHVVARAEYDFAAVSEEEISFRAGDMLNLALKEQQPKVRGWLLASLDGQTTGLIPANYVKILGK
UniProt Q99961, residues 306-365: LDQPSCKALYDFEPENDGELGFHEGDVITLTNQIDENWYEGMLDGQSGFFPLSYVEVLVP
UniProt Q9Y5X1, residues 1-62: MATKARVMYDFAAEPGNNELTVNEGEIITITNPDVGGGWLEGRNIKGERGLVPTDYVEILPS
UniProt P42680, residues 179-239: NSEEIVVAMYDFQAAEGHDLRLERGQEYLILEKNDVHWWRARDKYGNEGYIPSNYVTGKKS
UniProt Q9UKW4: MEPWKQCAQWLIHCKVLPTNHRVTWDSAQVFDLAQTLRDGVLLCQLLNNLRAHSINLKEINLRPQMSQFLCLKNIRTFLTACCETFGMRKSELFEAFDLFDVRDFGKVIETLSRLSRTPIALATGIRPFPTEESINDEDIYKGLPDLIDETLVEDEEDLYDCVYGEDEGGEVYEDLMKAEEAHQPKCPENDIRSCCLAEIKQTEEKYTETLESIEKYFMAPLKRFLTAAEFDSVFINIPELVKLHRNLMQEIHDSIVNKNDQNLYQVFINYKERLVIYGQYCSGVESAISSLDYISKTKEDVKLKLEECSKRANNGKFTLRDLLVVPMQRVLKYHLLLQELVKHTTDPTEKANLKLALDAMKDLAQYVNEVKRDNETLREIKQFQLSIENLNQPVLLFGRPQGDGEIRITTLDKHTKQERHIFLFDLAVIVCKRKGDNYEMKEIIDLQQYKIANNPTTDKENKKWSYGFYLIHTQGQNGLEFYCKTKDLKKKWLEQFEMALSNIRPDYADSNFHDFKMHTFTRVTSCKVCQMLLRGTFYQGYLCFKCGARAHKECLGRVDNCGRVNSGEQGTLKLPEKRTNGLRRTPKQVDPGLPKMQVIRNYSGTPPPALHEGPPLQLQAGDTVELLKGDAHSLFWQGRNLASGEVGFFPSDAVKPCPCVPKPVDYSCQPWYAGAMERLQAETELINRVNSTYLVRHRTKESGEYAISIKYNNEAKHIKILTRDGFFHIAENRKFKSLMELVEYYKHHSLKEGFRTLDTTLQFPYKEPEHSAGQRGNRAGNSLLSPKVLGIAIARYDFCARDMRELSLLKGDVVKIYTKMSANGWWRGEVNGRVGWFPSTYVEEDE
UniProt Q06187, residues 214-274: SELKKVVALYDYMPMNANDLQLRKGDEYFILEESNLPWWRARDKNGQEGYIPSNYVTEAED
UniProt P27986, residues 3-79: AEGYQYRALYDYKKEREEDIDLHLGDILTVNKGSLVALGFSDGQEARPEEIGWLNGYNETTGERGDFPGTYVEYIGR
UniProt Q92783, residues 210-269: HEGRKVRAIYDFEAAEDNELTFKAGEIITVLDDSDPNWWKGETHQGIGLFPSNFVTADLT
UniProt Q14247, residues 492-550: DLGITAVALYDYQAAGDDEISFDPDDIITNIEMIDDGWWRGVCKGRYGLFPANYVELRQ
UniProt P78352, residues 428-498: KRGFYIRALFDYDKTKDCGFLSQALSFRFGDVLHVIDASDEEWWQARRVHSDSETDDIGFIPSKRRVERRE
UniProt P51451, residues 58-118: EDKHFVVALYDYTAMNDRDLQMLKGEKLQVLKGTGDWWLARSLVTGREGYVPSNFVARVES
UniProt O00459, residues 4-80: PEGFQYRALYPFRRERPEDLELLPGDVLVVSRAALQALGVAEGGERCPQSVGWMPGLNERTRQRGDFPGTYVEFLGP
UniProt P07947, residues 91-152: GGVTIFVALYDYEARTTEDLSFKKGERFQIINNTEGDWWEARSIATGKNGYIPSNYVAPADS
UniProt P52735: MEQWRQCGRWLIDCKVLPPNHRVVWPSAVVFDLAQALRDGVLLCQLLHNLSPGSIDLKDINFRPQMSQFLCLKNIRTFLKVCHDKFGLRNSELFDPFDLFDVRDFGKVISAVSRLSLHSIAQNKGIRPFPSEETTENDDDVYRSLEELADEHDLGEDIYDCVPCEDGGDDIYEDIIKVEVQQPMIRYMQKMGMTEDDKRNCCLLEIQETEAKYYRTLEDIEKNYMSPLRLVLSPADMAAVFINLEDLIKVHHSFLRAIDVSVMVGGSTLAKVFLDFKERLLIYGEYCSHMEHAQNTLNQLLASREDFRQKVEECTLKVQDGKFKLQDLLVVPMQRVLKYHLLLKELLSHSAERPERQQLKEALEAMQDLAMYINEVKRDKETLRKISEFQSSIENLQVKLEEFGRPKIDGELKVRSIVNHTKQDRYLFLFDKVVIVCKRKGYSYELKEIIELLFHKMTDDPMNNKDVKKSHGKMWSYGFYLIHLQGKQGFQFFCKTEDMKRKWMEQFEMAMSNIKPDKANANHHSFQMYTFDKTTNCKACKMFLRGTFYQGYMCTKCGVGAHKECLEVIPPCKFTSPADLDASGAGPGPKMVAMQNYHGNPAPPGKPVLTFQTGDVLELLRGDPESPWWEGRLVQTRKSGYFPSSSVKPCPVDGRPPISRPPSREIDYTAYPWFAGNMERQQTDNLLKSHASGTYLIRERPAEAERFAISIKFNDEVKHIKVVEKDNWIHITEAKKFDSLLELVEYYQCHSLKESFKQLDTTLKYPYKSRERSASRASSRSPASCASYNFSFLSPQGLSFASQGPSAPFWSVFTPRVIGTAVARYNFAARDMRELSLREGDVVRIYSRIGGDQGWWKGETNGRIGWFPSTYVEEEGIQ
UniProt P56945: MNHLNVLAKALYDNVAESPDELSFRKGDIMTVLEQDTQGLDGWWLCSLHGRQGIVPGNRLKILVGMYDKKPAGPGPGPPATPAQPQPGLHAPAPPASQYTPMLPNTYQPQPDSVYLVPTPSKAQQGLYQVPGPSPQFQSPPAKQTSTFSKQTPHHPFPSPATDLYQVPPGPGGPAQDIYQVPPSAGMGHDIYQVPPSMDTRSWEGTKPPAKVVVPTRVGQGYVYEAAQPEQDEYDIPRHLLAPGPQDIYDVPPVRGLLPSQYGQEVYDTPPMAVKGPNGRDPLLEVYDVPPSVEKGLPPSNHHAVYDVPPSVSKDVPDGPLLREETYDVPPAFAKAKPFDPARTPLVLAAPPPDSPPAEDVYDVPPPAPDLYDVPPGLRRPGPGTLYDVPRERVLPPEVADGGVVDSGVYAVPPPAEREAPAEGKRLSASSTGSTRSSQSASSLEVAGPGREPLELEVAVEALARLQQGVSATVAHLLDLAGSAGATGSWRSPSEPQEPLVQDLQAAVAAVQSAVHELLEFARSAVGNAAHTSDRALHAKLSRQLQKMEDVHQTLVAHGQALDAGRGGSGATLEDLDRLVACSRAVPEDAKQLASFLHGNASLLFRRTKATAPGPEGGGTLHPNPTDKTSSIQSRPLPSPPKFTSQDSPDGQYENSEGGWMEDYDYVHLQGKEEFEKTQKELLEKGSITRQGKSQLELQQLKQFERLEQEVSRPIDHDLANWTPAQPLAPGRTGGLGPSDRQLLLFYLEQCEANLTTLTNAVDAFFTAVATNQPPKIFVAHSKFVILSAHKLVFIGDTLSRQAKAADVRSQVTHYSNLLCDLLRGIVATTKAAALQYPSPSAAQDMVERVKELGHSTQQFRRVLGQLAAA

Results are given in words; binding and its absence hold for the method and conditions named. A result given as binding can be weak or reduced; the word gives no strength.

What all share (experiment): peptide or protein array; Panomics SH3 Domain Arrays I and II: immobilised SH3 domains fused to GST, hybridised with purified N-terminally His-tagged SH3-b domain, detected with peroxidase-conjugated anti-His antibody and ECL; both purified
The target in assay [1] is VINE-D3 SH3 domain (SH3 domain array) (UniProt O60504).
In assay [2] the target is PEXD SH3 domain (SH3 domain array) (UniProt Q92968).
Assay [3] has as its target SH3-1 (SH3-containing GRB2-like protein 1) SH3 domain (SH3 domain array) (UniProt Q99961).
The target in assay [4] is SNX9 SH3 domain (SH3 domain array) (UniProt Q9Y5X1).
The target in assay [5] is T1, amphiphysin SH3 domain (SH3 domain array) (UniProt P49418).
T1 sequence: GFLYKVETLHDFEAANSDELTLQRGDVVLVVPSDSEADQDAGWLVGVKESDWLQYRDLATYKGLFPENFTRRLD

In assay [6] the target is Tec SH3 domain (SH3 domain array) (UniProt P42680).
The target of assay [7] is VAV3-D2 SH3 domain (SH3 domain array) (UniProt Q9UKW4).
For assay [8], the target named is BTK SH3 domain (SH3 domain array) (UniProt Q06187).
The target of assay [9] is PI3α SH3 domain (SH3 domain array) (UniProt P27986).
Assay [10] addresses Stam SH3 domain (SH3 domain array) (UniProt Q92783).
Assay [11] deals with cortactin SH3 domain (SH3 domain array) (UniProt Q14247).
Assay [12] concerns the target T2, EFS SH3 domain (SH3 domain array) (UniProt O43281).
T2 sequence: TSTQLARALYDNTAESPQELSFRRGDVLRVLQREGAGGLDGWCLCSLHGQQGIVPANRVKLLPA

Assay [13] concerns the target PSD95 SH3 domain (SH3 domain array) (UniProt P78352).
Assay [14] concerns the target BLK SH3 domain (SH3 domain array) (UniProt P51451).
Assay [15] concerns the target PI3-ß SH3 domain (SH3 domain array) (UniProt O00459).
Assay [16] has as its target T3, PIG2 SH3 domain (SH3 domain array) (UniProt P16885).
T3 sequence: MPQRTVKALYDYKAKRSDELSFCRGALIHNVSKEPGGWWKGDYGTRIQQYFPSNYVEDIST

Assay [17] deals with T4, RasGAP SH3 domain (SH3 domain array) (UniProt P20936).
T4 sequence: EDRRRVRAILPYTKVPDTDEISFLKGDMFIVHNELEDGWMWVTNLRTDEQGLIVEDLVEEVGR

The target of assay [18] is Yes1 SH3 domain (SH3 domain array) (UniProt P07947).
Assay [19] deals with VAV2-D2 SH3 domain (SH3 domain array) (UniProt P52735).

On to “His-tagged-p130Cas-P2 domain (from UniProt P56945) (domain or fragment)”, for which the binding entry in [1] is “binds”; in assay [2] it was “binds”; in [3] it was “binds”; in [4] it was “binds”; in [5], “binds weakly”; in [6] it was “binds”. The binding entry in assay [7] is recorded as “binds weakly”; in assay [8], “binds”; in assay [9], “binds”; in assay [10], “binds weakly”; in assay [11], “binds”; in [12], “binds weakly”. Also, the binding result in [13] is recorded as “binds”; in assay [14], “binds weakly”; in [15], “binds”; in [16], “binds”; in assay [17], “binds weakly”; in assay [18] it was “binds”. Further, in assay [19], the binding result is “binds”.
